Taken from: PubChem BioAssay AID1259254 (NCATS, 2017)

Purpose: 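Gene knock-downs that lead to re-replication, shown by excess G2 DNA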 (primary screen)
Cells: human HCT116 colorectal cancer cells
Reagent: single siRNA against human genes
Duration: 3 days
Measurement: 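Nuclei stained with Hoechst and imaged; cell-cycle phase assigned by DNA content; G2 share scaled per plate, non-targeting siRNA 0%, GMNN siRNA 100%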
Direction: G2 robust z-score: higher = more G2 cells, more excess DNA replication
Hit rule: 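Active siRNAs have a G2 robust z of 5 or more median absolute deviations over the median, which in these data means about 38% or higher of GMNN control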
Shown is a random part of about 59,000 deposited reagents. About 1,550 of all reagents (2.6%) count as active. 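G2 share is only a proxy for re-replication; each gene was hit by three separate siRNAs, and active genes were retested.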 The numbers tell different reagents against one gene apart. Further read-outs or replicates are left out here. No sequences are given here. Not stated in the record: the amount of reagent.

The first 3 entries, to show the layout:
target,reagent no.,G2 robust z-score,activity call
CYB561D1 (cytochrome b561 family member D1),1,0.741,inactive
CYB561D1 (cytochrome b561 family member D1),2,0.719,inactive
CYB561D1 (cytochrome b561 family member D1),3,-0.631,inactive

Main list, repeating the preview:
target,reagent no.,G2 robust z-score,activity call
CYB561D1 (cytochrome b561 family member D1),1,0.741,inactive
CYB561D1 (cytochrome b561 family member D1),2,0.719,inactive
CYB561D1 (cytochrome b561 family member D1),3,-0.631,inactive
SNN (stannin),1,-1.23,inactive
SNN (stannin),2,5.79,active
SNN (stannin),3,-0.438,inactive
ZNF491 (zinc finger protein 491),1,1.57,inactive
ZNF491 (zinc finger protein 491),2,0.11,inactive
ZNF491 (zinc finger protein 491),3,-0.264,inactive
PCSK9 (proprotein convertase subtilisin/kexin type 9),1,-0.446,inactive
PCSK9 (proprotein convertase subtilisin/kexin type 9),2,-0.626,inactive
PCSK9 (proprotein convertase subtilisin/kexin type 9),3,0.462,inactive
L3HYPDH (trans-L-3-hydroxyproline dehydratase),1,0.31,inactive
L3HYPDH (trans-L-3-hydroxyproline dehydratase),2,0.896,inactive
L3HYPDH (trans-L-3-hydroxyproline dehydratase),3,-0.277,inactive
PELI2 (pellino E3 ubiquitin protein ligase family member 2),1,0.414,inactive
PELI2 (pellino E3 ubiquitin protein ligase family member 2),2,0.117,inactive
PELI2 (pellino E3 ubiquitin protein ligase family member 2),3,-0.299,inactive
BCOR (BCL6 corepressor),1,2.17,inactive
BCOR (BCL6 corepressor),2,-0.53,inactive
BCOR (BCL6 corepressor),3,0.803,inactive
CHD9 (chromodomain helicase DNA binding protein 9),1,-0.263,inactive
CHD9 (chromodomain helicase DNA binding protein 9),2,-0.252,inactive
CHD9 (chromodomain helicase DNA binding protein 9),3,1.35,inactive
PXT1 (peroxisomal testis enriched protein 1),1,1.68,inactive
PXT1 (peroxisomal testis enriched protein 1),2,-0.757,inactive
PXT1 (peroxisomal testis enriched protein 1),3,4.05,inactive
FLJ46838 (retired record),1,-0.219,inactive
FLJ46838 (retired record),2,-0.456,inactive
FLJ46838 (retired record),3,1.58,inactive
